Data taken from PubChem BioAssay AID312 (DTP/NCI, 2004).
The list shows only some results of the screen, not a fair sample: it is rich in T/C values a quarter to a half above the control, in often repeated tests (any T/C) and in doses without a T/C. Further doses and runs are listed elsewhere. T/C gives the treated animals as a percentage of the vehicle group. Some doses have a count of surviving animals in place of a T/C: the source holds a T/C of zero for them, seemingly a mark for toxic or unscored doses. Some doses without a T/C left all or most animals alive at the check, yet need not have been tolerated: survival well below the control is almost never listed, so the zero probably covers shortened survival too. Counts of survivors are from the toxicity check (mostly the fifth day) where no day follows; animals may have died later. Schedule codes are those of the source, read here as Q, the interval in days (D) or hours (H), X, the number of doses. Some entries were tested several times; the results are listed from low to high. For survival time, the PubChem record calls one and a half times the control and up active, and a quarter to a half above the control has no call in these data; cut-offs in other NCI protocols can differ. Some T/C values carry the count of animals alive at the toxicity check (mostly the fifth day); where none is given, no animal had died by that day.

System: BDF1 mice, C1498 leukemia ip, median survival T/C
Experiment: NCI In Vivo Anticancer Drug Screen. Data for tumor model C1498 Myeloid Leukemia (intraperitoneal) in B6D2F1 (BDF1) mice
Conditions: T/C endpoint: median survival time, higher T/C = longer survival
Protocol: The antitumor activity of compounds was measured in mice bearing transplantable tumors. Survival or tumor size were measured and the results are expressed as the measurement made in the treated group (T) divided by the measurement made in the vehicle treated control group (C). The tumor model used in this assay is C1498 Myeloid Leukemia (intraperitoneal) in B6D2F1 (BDF1) mice

[1] = dose: 200.0 mg/kg/injection, schedule: Q01DX010 (ip), vehicle: saline
[2] = dose: 64.0 mg/kg/injection, schedule: Q01DX010 (ip), vehicle: saline
[3] = dose: 50.0 mg/kg/injection, schedule: Q01DX010 (ip), vehicle: saline
[4] = dose: 100.0 mg/kg/injection, schedule: Q01DX010 (ip), vehicle: saline
[5] = dose: 12.5 mg/kg/injection, schedule: Q01DX010 (ip), vehicle: saline
[6] = dose: 25.0 mg/kg/injection, schedule: Q01DX010 (ip), vehicle: saline
[7] = dose: 10.0 mg/kg/injection, schedule: Q01DX010 (ip), vehicle: saline
[8] = dose: 40.0 mg/kg/injection, schedule: Q01DX010 (ip), vehicle: saline
[9] = dose: 8.0 mg/kg/injection, schedule: Q01DX010 (ip), vehicle: saline
[10] = dose: 80.0 mg/kg/injection, schedule: Q01DX010 (ip), vehicle: saline
[11] = dose: 2.5 mg/kg/injection, schedule: Q01DX010 (ip), vehicle: saline
[12] = dose: 0.5 mg/kg/injection, schedule: Q01DX010 (ip), vehicle: saline
[13] = dose: 1.0 mg/kg/injection, schedule: Q01DX010 (ip), vehicle: saline
[14] = dose: 250.0 mg/kg/injection, schedule: Q01DX010 (ip), vehicle: saline
[15] = dose: 20.0 mg/kg/injection, schedule: Q01DX010 (ip), vehicle: saline
[16] = dose: 2.0 mg/kg/injection, schedule: Q01DX010 (ip), vehicle: saline

## CCN(CC)CCNc1ccc(C)c2sc3ccccc3c(=O)c12
[1]
  survivor count: 6 of 6

## O=C(Nc1ccc(NC2=NCCN2)cc1)c1ccc(C(=O)Nc2ccc(NC3=NCCN3)cc2)cc1
dose: 4.0 mg/kg/injection, schedule: Q01DX010 (ip), vehicle: saline
  T/C: 127 and 133 % of control

## COc1cccc2c1C(=O)c1c(O)c3c(c(O)c1C2=O)C[C@@](O)(C(C)=O)C[C@@H]3OC1CC(N)C(O)C(C)O1 (stereo partly drawn)
dose: 5.0 mg/kg/injection, schedule: Q01DX010 (ip), vehicle: other
  survivor count: 6 of 6
dose: 10.0 mg/kg/injection, schedule: Q01DX010 (ip), vehicle: other
  survivor count: 6 of 6
dose: 625.0 micrograms/kg/injection, schedule: Q01DX010 (ip), vehicle: saline
  T/C: 136 % of control
dose: 1250.0 micrograms/kg/injection, schedule: Q01DX010 (ip), vehicle: saline
  T/C: 136 % of control

## C#CCN(C)Cc1ccccc1
dose: 400.0 mg/kg/injection, schedule: Q01DX010 (ip), vehicle: saline
  survivor count: 0 of 6

## COc1cc(C(=O)O)c2c(c1C)OC(=O)c1c(C)cc(O)c(C=O)c1O2
[2]
  survivor count: 3 of 6

## CN(C)/N=N/c1nc[nH]c1C(N)=O
[3]
  T/C: 127 % of control
[4]
  T/C: 131 % of control

## C[C@]12C=CC(=O)C=C1CC[C@@H]1[C@@H]2[C@@H](O)C[C@@]2(C)[C@H]1CC[C@]2(O)C(=O)CO
dose: 12.5 mg/kg/injection, schedule: Q01DX010 (sc), vehicle: steroid suspending solution
  survivor count: 6 of 6
dose: 25.0 mg/kg/injection, schedule: Q01DX010 (sc), vehicle: steroid suspending solution
  survivor count: 6 of 6
dose: 50.0 mg/kg/injection, schedule: Q01DX010 (sc), vehicle: steroid suspending solution
  survivor count: 6 of 6
dose: 100.0 mg/kg/injection, schedule: Q01DX010 (sc), vehicle: steroid suspending solution
  survivor count: 6 of 6

## O=C(Nc1ccc(C2=NCCN2)cc1)c1cccc(C(=O)Nc2ccc(C3=NCCN3)cc2)c1
[2]
  T/C: 138 and 142 % of control

## O[C@H](CN1CC1)[C@@H](O)CN1CC1
dose: 125.0 micrograms/kg/injection, schedule: Q01DX010 (ip), vehicle: saline
  T/C: 130 % of control
dose: 250.0 micrograms/kg/injection, schedule: Q01DX010 (ip), vehicle: saline
  T/C: 146 % of control

## N=[N+]=CC(=O)OCC(N)C(=O)O (stereo not drawn)
dose: 3.13 mg/kg/injection, schedule: Q01DX010 (ip), vehicle: saline
  T/C: 145 % of control
[5]
  T/C: 145 % of control
[6]
  survivor count: 6 of 6

## Cc1cc2nc3c(=O)[nH]c(=O)nc-3n(CC(O)C(O)C(O)C(O)CO)c2cc1C (stereo not drawn)
[3]
  survivor count: 7 of 7
[4]
  survivor count: 7 of 7
[1]
  survivor count: 7 of 7

## CN(C)[C@@H]1C(=O)C(C(N)=O)=C(O)[C@@]2(O)C(=O)C3=C(O)c4c(O)cccc4C[C@H]3C[C@@H]12
dose: 60.0 mg/kg/injection, schedule: Q01DX010 (ip), vehicle: saline
  survivor count: 6 of 6

## O=c1[nH]cc(F)c(=O)[nH]1
dose: 5.0 mg/kg/injection, schedule: Q01DX010 (ip), vehicle: saline
  T/C: 131 % of control
[7]
  T/C: 131 % of control
[8]
  survivor count: 6 of 6

## O=C(Nc1ccc(C2=NCCN2)cc1)c1ccc(C(=O)Nc2ccc(C3=NCCN3)cc2)c([N+](=O)[O-])c1
[9]
  T/C: 126 % of control
dose: 18.0 mg/kg/injection, schedule: Q01DX010 (ip), vehicle: saline
  survivor count: 6 of 6

## CN(C)c1ccc(Nc2c3ccccc3nc3ccccc23)cc1
dose: 54.0 mg/kg/injection, schedule: Q01DX010 (ip), vehicle: saline
  T/C: 127 % of control
[10]
  T/C: 145 % of control

## N#CCSc1ncnc2nc[nH]c12
dose: 120.0 mg/kg/injection, schedule: Q01DX010 (ip), vehicle: saline
  survivor count: 4 of 6
dose: 240.0 mg/kg/injection, schedule: Q01DX010 (ip), vehicle: saline
  survivor count: 3 of 6

## O=C(O)c1[nH]c(=O)[nH]c(=O)c1F
[11]
  T/C: 125 % of control

## CC(=O)NC1=C(N2CC2)C(=O)C(NC(C)=O)=C(N2CC2)C1=O
dose: 0.25 mg/kg/injection, schedule: Q01DX010 (ip), vehicle: saline
  T/C: 125 % of control
[12]
  T/C: 133 % of control
[13]
  T/C: 129 % of control

## Nc1nc2n[nH]nc2c(=O)[nH]1
dose: 200.0 mg/kg/injection, schedule: Q01DX010 (ip), vehicle: alkali diluted with saline
  survivor count: 6 of 6

## CCCSc1ncnc2nc[nH]c12
[14]
  survivor count: 0 of 6

## Nc1nc(=S)c2ncn(C3OC(CO)C(O)C3O)c2[nH]1 (stereo not drawn)
[13]
  T/C: 130 and 131 % of control

## Nc1nc(=S)c2[nH]cnc2[nH]1
dose: 27.0 mg/kg/injection, schedule: Q01DX001 (ip), vehicle: alkali diluted with saline
  T/C: 130 % of control
dose: 40.0 mg/kg/injection, schedule: Q01DX001 (ip), vehicle: alkali diluted with saline, evaluated on day 45
  T/C: 137 % of control
dose: 40.0 mg/kg/injection, schedule: Q01DX001 (ip), vehicle: alkali diluted with saline, evaluated on day 60
  T/C: 130 % of control
dose: 60.0 mg/kg/injection, schedule: Q01DX001 (ip), vehicle: alkali diluted with saline, evaluated on day 45
  T/C: 145 % of control
dose: 60.0 mg/kg/injection, schedule: Q01DX001 (ip), vehicle: alkali diluted with saline, evaluated on day 60
  T/C: 131 % of control [9 of 10 alive on day 6]

## CS(=O)(=O)OCCCCOS(C)(=O)=O
dose: 6.25 mg/kg/injection, schedule: Q01DX010 (ip), vehicle: saline
  T/C: 131 % of control
[6]
  T/C: 128 % of control

## C=CC(CN1CC1)OC(C)=O (stereo not drawn)
[9]
  T/C: 136 % of control

## COc1cc(-c2ccc(Nc3ccccc3C(=O)O)c(OC)c2)ccc1Nc1ccccc1C(=O)O
[1]
  survivor count: 6 of 6

## CS(=O)(=O)OCCCl
dose: 150.0 mg/kg/injection, schedule: Q01DX010 (ip), vehicle: saline
  survivor count: 3 of 6

## NC(Cc1ccc(N(CCCl)CCCl)cc1)C(=O)O (stereo not drawn)
[11]
  T/C: 146 % of control
[15]
  survivor count: 6 of 6

## O=c1[nH]c(=O)n(C2CC(O)C(CO)O2)cc1F (stereo not drawn)
[15]
  T/C: 126 and 127 % of control
[8]
  T/C: 138 % of control

## COc1cc(-c2ccc(Nc3ccccc3C(=O)O)c(OC)c2)ccc1N
[8]
  T/C: 130 % of control
[10]
  survivor count: 0 of 6

## C1CN1c1nc(N2CC2)nc(N2CC2)n1
[13]
  survivor count: 6 of 6
[16]
  survivor count: 0 of 6

## Cc1cc(N(CCCl)CCCl)ccc1N=Nc1ccccc1C(=O)O
[7]
  T/C: 131 % of control [5 of 6 alive]
[8]
  survivor count: 6 of 6
[10]
  survivor count: 5 of 6

## CCOC(N)=O
dose: 1000.0 mg/kg/injection, schedule: Q01DX010 (ip), vehicle: saline
  survivor count: 5 of 6 and 6 of 6

## CCN(CCNc1ccc(C)c2sc3cc(Cl)ccc3c(=O)c12)CC(C)O (stereo not drawn)
[14]
  survivor count: 6 of 6
dose: 500.0 mg/kg/injection, schedule: Q01DX010 (ip), vehicle: saline
  survivor count: 5 of 6

## Nc1nc(N)c2nc(CNc3ccc(C(=O)NC(CCC(=O)O)C(=O)O)cc3)cnc2n1 (stereo not drawn)
dose: 0.4 mg/kg/injection, schedule: Q01DX010 (ip), vehicle: other
  T/C: 126 % of control

## CS(=O)(=O)OCCN(CCOS(C)(=O)=O)c1ccc(N=O)cc1
[12]
  T/C: 136 % of control
[13]
  T/C: 131 % of control
[16]
  survivor count: 6 of 6

## Nc1nc(F)nc2c1ncn2C1OC(CO)C(O)C1O (stereo not drawn)
[9]
  survivor count: 6 of 6

## O=c1cnn(C2OC(CO)C(O)C2O)c(=O)[nH]1 (stereo not drawn)
dose: 1600.0 mg/kg/injection, schedule: Q01DX010 (ip), vehicle: saline
  survivor count: 6 of 6

## CS(=O)(=O)OCCC(=O)N1CCN(C(=O)CCOS(C)(=O)=O)CC1
[3]
  T/C: 135 % of control

## O=C(O)CCCc1ccc(N(CCCl)CCCl)cc1
[5]
  T/C: 130 % of control
[6]
  survivor count: 0 of 6

## O=[n+]1c2c(n([O-])c3ccccc31)-c1cccc3cccc-2c13
[6]
  survivor count: 6 of 6
[3]
  survivor count: 6 of 6
[4]
  survivor count: 6 of 6
[1]
  survivor count: 6 of 6

## C[C@@H]1C[C@@H]([C@H](O)CC2CC(=O)NC(=O)C2)C(=O)[C@@H](C)C1
[8]
  T/C: 128 % of control
